This is one part of the list. Further columns of the screen follow, without active or inactive calls. The list favours compounds with an active or inconclusive main result. Words in brackets tell the shape of the fitted curve; partial curves, single points and poor fits give uncertain potencies.

A short description of the experiment: Cell signaling CRE-BLA (Fsk stim). The conditions noted are these: CHO CRE-bla reporter (cAMP response element driving beta-lactamase), forskolin EC10, beta-lactamase ratio; measured here: 460 nm blue channel. The procedure, abridged: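 Using CellSensor CRE-bla CHO cells in Opti-MEM with 0.5% dialyzed FBS, compounds were titrated with EC10 NKH 477 for 3 h at 37 °C. CCF4 ratio (460/530 nm) gave %Activity; AC50 derived.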
In general, AC50 refers to the midpoint of the concentration-response curve, whichever way the signal moves. Consider `c1csc(CNc2ccnc(-c3ccoc3)n2)c1`, for which the AC50 was 3.16 µM [rising, single point].
In the case of `COC(=O)c1cc2ccc(OC)c(OC)c2c(=O)s1`, the AC50 is 12.6 µM [rising, single point].
`CCNc1ncc2nc(-c3cccs3)c(=O)n(C[C@H]3CCCO3)c2n1`: the half-maximal activity concentration (AC50) is 2.51 µM [rising, full curve].
With `CCOC(=O)c1ccc(N2C(=O)C(O)=C(C(C)=O)C2c2ccc(O)c(OC)c2)cc1` (centres undefined), the concentration at half-maximal activity (AC50) was 15.8 µM [falling, single point].
As for `COc1ccc2[nH]c(O)c(NC(C)=O)c2c1`, the half-maximal activity concentration (AC50) was 0.398 µM [rising, full curve].
As for `Cc1cccc(N2CCN(C(=O)C3CCN(S(=O)(=O)c4cccc5cccnc45)CC3)CC2C)c1` (centres undefined), the half-maximal activity concentration (AC50) is 25.1 µM [falling, single point].
For the compound `CCn1c(NCc2ccco2)nc2c1c(=O)n(C)c(=O)n2C`, the concentration at half-maximal activity (AC50) was 10 µM [rising, partial curve].
The figure for `COc1ccc(OC)c(C(c2nnnn2C2CCCC2)N2CCc3ccccc3C2)c1` (centres undefined) is 15.8 µM [falling, partial curve]; for `CSCC[C@H](NC(=O)C1CCN(S(=O)(=O)c2ccc(C)cc2)CC1)C(=O)NCc1ccco1` it is 0.00794 µM [falling, full curve, poor fit]; for `Cc1ccc2[nH]c(-c3cccc(N)c3)cc2c1` it is 0.794 µM [falling, full curve, poor fit].
As to `COc1cccc(Cn2c(=O)c(-c3cc(F)cc(F)c3)nc3cnc(N4CCOCC4)nc32)c1`, the AC50 is 5.01 µM [rising, partial curve].
Regarding `Cc1nc2ccccc2nc1N1CCCC1`, the AC50 is 3.16 µM [rising, single point].
With `COCc1cc(C)nc(N2CCN(c3ccccc3)CC2)c1C#N`, the AC50 is 31.6 µM [rising, single point].
For `Cc1nc(SCC(=O)N2CCN(C(=O)c3ccco3)CC2)c2c(C)c(C)sc2n1`, the concentration at half-maximal activity (AC50) is 1.26 µM [rising, full curve].
Regarding `COc1cc(OC)c2c(C)c(Cl)c(=O)oc2c1`, the AC50 is 10 µM [rising, partial curve].
In the case of `O=C(Nc1ccc(S(=O)(=O)NC2CCCCC2)cc1)c1ccc(Br)o1`, the half-maximal activity concentration (AC50) was 25.1 µM [rising, single point].
As for `CC(=O)N1CCc2cc(C(=O)CN3CCN(C(=O)c4ccco4)CC3)ccc21`, the concentration at half-maximal activity (AC50) was 12.6 µM [falling, partial curve].
`CCNc1nc(NCC)nc(-n2nc(C)cc2C)n1`: the half-maximal activity concentration (AC50) was 12.6 µM [rising, partial curve].
Regarding `CC1CCN(c2nc(-c3ccccc3)c(C#N)c(=O)[nH]2)CC1`, the AC50 is 0.501 µM [falling, partial curve].

For the origin of these results see PubChem BioAssay AID662 (National Center for Advancing Translational Sciences (NCATS), 2007).
